Results deposited as PubChem BioAssay AID1259254 (NCATS, 2017).

- Assay: 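Gene knock-downs that lead to re-replication, shown by excess G2 DNA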 (primary screen)
- Cells: human HCT116 colorectal cancer cells
- Reagents: single siRNA against human genes
- Time to read-out: 3 days
- Detection: 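Imaged Hoechst DNA stain sorts each cell into a cycle phase by DNA amount; per plate, G2 fraction set to 0% for non-targeting and 100% for GMNN siRNA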
- Direction: G2 robust z-score and G2 cells, % of GMNN control: higher = more G2 cells, more excess DNA replication
- Rule for the call: 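Active siRNAs have a G2 robust z of 5 or more median absolute deviations over the median, which in these data means about 38% or higher of GMNN control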
This is a random part of about 59,000 deposited reagents. About 1,550 of them (2.6%) count as active. 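G2 share is only a proxy for re-replication; each gene was hit by three separate siRNAs, and active genes were retested.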 Reagents against one gene are numbered here. Not all columns of the deposit are shown. The record does not give: the amount of reagent.

For SLC6A12 #1, what was measured?
G2 robust z-score: -0.259; G2 cells, % of GMNN control: 1.14; activity call: inactive

For SLC6A12 #2, how do the results read?
G2 robust z-score: -0.107; G2 cells, % of GMNN control: 2.21; activity call: inactive

What is on record for SLC6A12 #3?
G2 robust z-score: 0.906; G2 cells, % of GMNN control: 9.34; activity call: inactive

What is on record for CCT3 #1?
G2 robust z-score: 1.67; G2 cells, % of GMNN control: 14.8; activity call: inactive

For CCT3 #2, what does the deposit list?
G2 robust z-score: 1.71; G2 cells, % of GMNN control: 15; activity call: inactive

For CCT3 #3, how do the results read?
G2 robust z-score: 0.957; G2 cells, % of GMNN control: 9.7; activity call: inactive

Which result is listed for RTP1 #1?
G2 robust z-score: -1.11; G2 cells, % of GMNN control: -4.84; activity call: inactive

Which result is listed for RTP1 #2?
G2 robust z-score: -0.83; G2 cells, % of GMNN control: -2.87; activity call: inactive

With RTP1 #3, what does the deposit list?
G2 robust z-score: 2.02; G2 cells, % of GMNN control: 17.2; activity call: inactive

For ARHGAP33 #1, what was measured?
G2 robust z-score: 1.21; G2 cells, % of GMNN control: 11.5; activity call: inactive

How did the screen score ARHGAP33 #2?
G2 robust z-score: 0.133; G2 cells, % of GMNN control: 3.9; activity call: inactive

What is on record for ARHGAP33 #3?
G2 robust z-score: 0.401; G2 cells, % of GMNN control: 5.79; activity call: inactive

With RAB1AP2 #1, what was measured?
G2 robust z-score: 0.774; G2 cells, % of GMNN control: 8.41; activity call: inactive

Which result is listed for RAB1AP2 #2?
G2 robust z-score: 1.92; G2 cells, % of GMNN control: 16.5; activity call: inactive

How did the screen score RAB1AP2 #3?
G2 robust z-score: -0.223; G2 cells, % of GMNN control: 1.4; activity call: inactive

For PLIN3 #1, how do the results read?
G2 robust z-score: -0.616; G2 cells, % of GMNN control: -1.37; activity call: inactive

How did the screen score PLIN3 #2?
G2 robust z-score: 0.44; G2 cells, % of GMNN control: 6.06; activity call: inactive

What is on record for PLIN3 #3?
G2 robust z-score: 1.51; G2 cells, % of GMNN control: 13.6; activity call: inactive

For RUVBL1 #1, how do the results read?
G2 robust z-score: 2.68; G2 cells, % of GMNN control: 21.8; activity call: inactive

For RUVBL1 #2, what was measured?
G2 robust z-score: -0.205; G2 cells, % of GMNN control: 1.53; activity call: inactive

Which result is listed for RUVBL1 #3?
G2 robust z-score: 0.565; G2 cells, % of GMNN control: 6.94; activity call: inactive

With RND1 #1, what does the deposit list?
G2 robust z-score: 0.497; G2 cells, % of GMNN control: 6.46; activity call: inactive

What is on record for RND1 #2?
G2 robust z-score: -0.237; G2 cells, % of GMNN control: 1.3; activity call: inactive

What is on record for RND1 #3?
G2 robust z-score: -0.932; G2 cells, % of GMNN control: -3.59; activity call: inactive

What did the screen give for ELF5 #1?
G2 robust z-score: 0.651; G2 cells, % of GMNN control: 7.54; activity call: inactive

What did the screen give for ELF5 #2?
G2 robust z-score: -0.875; G2 cells, % of GMNN control: -3.19; activity call: inactive

With ELF5 #3, what was measured?
G2 robust z-score: -0.723; G2 cells, % of GMNN control: -2.12; activity call: inactive

What is on record for OSGEPL1 #1?
G2 robust z-score: -0.466; G2 cells, % of GMNN control: -0.315; activity call: inactive

What did the screen give for OSGEPL1 #2?
G2 robust z-score: -0.25; G2 cells, % of GMNN control: 1.21; activity call: inactive

How did the screen score OSGEPL1 #3?
G2 robust z-score: -0.371; G2 cells, % of GMNN control: 0.357; activity call: inactive

Reformatted: results already given
Gene | reagent | G2 robust z-score | G2 cells, % of GMNN control | activity call
RTP1 | 1 | -1.11 | -4.84 | inactive
RTP1 | 2 | -0.83 | -2.87 | inactive
RTP1 | 3 | 2.02 | 17.2 | inactive
ARHGAP33 | 1 | 1.21 | 11.5 | inactive
